Test results from article PMC8414799.
Results are given in words; binding and its absence hold for the method and conditions named. Binding seen in cells or lysates may run through a third protein. Some results given as binding are weak or reduced against the parent protein; the word gives no strength. Tags and fused reporters may be left off the sequences shown.

Sequences of proteins named here, by UniProt entry; tags and fusion partners are left off.
UniProt P26196: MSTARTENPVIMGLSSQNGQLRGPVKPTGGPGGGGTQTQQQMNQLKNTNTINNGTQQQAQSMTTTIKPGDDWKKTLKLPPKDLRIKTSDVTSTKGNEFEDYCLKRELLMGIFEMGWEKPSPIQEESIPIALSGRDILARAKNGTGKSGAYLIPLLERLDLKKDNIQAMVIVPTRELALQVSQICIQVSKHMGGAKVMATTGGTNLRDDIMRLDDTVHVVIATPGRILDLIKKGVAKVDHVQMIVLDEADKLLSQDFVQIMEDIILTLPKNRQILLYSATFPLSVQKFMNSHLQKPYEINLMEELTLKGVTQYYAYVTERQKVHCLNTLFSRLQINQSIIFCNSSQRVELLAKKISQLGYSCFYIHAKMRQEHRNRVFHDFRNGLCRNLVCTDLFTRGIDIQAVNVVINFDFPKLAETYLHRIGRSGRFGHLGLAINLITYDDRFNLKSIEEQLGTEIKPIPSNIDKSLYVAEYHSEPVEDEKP

Target: GFP-DDX6 (UniProt P26196)
Test: co-IP; HEK-293T cells transfected with Flag-RIG-I and GFP-NC or GFP-DDX6; lysed in RIPA buffer after 36 h; lysate incubated with anti-Flag antibody at 4°C overnight, then Protein A+G agarose beads for 60 min; Western blot with antibodies to RIG-I, GFP and GAPDH (the results instead speak of an antibody specific for the GFP tag on DDX6)

- binding: binds
B1: Flag-RIG-I (protein, UniProt O95786 1-925)
chain: MTTEQRRSLQAFQDYIRKTLDPTYILSYMAPWFREEEVQYIQAEKNNKGPMEAATLFLKFLLELQEEGWFRGFLDALDHAGYSGLYEAIESWDFKKIEKLEEYRLLLKRLQPEFKTRIIPTDIISDLSECLINQECEEILQICSTKGMMAGAEKLVECLLRSDKENWPKTLKLALEKERNKFSELWIVEKGIKDVETEDLEDKMETSDIQIFYQEDPECQNLSENSCPPSEVSDTNLYSPFKPRNYQLELALPAMKGKNTIICAPTGCGKTFVSLLICEHHLKKFPQGQKGKVVFFANQIPVYEQQKSVFSKYFERHGYRVTGISGATAENVPVEQIVENNDIIILTPQILVNNLKKGTIPSLSIFTLMIFDECHNTSKQHPYNMIMFNYLDQKLGGSSGPLPQVIGLTASVGVGDAKNTDEALDYICKLCASLDASVIATVKHNLEELEQVVYKPQKFFRKVESRISDKFKYIIAQLMRDTESLAKRICKDLENLSQIQNREFGTQKYEQWIVTVQKACMVFQMPDKDEESRICKALFLYTSHLRKYNDALIISEHARMKDALDYLKDFFSNVRAAGFDEIEQDLTQRFEEKLQELESVSRDPSNENPKLEDLCFILQEEYHLNPETITILFVKTRALVDALKNWIEGNPKLSFLKPGILTGRGKTNQNTGMTLPAQKCILDAFKASGDHNILIATSVADEGIDIAQCNLVILYEYVGNVIKMIQTRGRGRARGSKCFLLTSNAGVIEKEQINMYKEKMMNDSILRLQTWDEAVFREKILHIQTHEKFIRDSQEKPKPVPDKENKKLLCRKCKALACYTADVRVIEECHYTVLGDAFKECFVSRPHPKPKQFSSFEKRAKIFCARQNCSHDWGIHVKYKTFEIPVIKIESFVVEDIATGVQTLYSKWKDFHFEKIPFDPAEMSK
